Reference: patent US11426394B2, “Method to prevent and treat macular degeneration by calcium channel blockers, angiotensin converting enzyme inhibitors, and angiotensin receptor blockers” (priority 2018, dated 2022)
At least one compound was matched to its structure with a doubt left.

What was measured:
wet macular degeneration = experiment: Patient with wet macular degeneration: one eye treated, other eye left untreated; assay type: in vivo, human
From the text: (§1) A patient is diagnosed with wet macular degeneration. A composition comprising the calcium channel blocker nifedipine is directly applied to the vitreous surface of one eye while the other eye is left untreated. […] A patient is diagnosed with wet macular degeneration. A composition comprising the ACE inhibitor enalapril is directly applied to the vitreous surface of one eye while the other eye is left untreated. […] A patient is diagnosed with wet macular degeneration. A composition comprising the angiotensin receptor blocker losartan is directly applied to the vitreous surface of one eye while the other eye is left untreated. […] A patient is diagnosed with wet macular degeneration. A composition comprising the calcium channel blocker nifedipine is directly injected into the intraocular space of one eye while the other eye is left untreated. […] A patient is diagnosed with wet macular degeneration. A composition comprising the ACE inhibitor enalapril is directly injected into the intraocular space of one eye while the other eye is left untreated. […] A patient is diagnosed with wet macular degeneration. A composition comprising the angiotensin receptor blocker losartan is directly injected into the intraocular space of one eye while the other eye is left untreated.

dry macular degeneration = experiment: Patient with dry macular degeneration: one eye treated, other eye left untreated; assay type: in vivo, human
From the text: as §1, with “dry” for “wet”

[1] = composition directly applied to the vitreous surface of one eye
[2] = composition directly injected into the intraocular space of one eye

With `COC(=O)C1=C(C)NC(C)=C(C(=O)OC)C1c1ccccc1[N+](=O)[O-]` [nifedipine] the “symptoms of wet macular degeneration, treated eye versus untreated eye” value (wet macular degeneration; [1]) was “reduced symptoms of wet macular degeneration”, the “symptoms of wet macular degeneration, treated eye versus untreated eye” value (wet macular degeneration; [2]) was “reduced symptoms of wet macular degeneration” and the “symptoms of dry macular degeneration, treated eye versus untreated eye” value (dry macular degeneration; [1]) was “reduced symptoms of dry macular degeneration”. For the same compound, the “symptoms of dry macular degeneration, treated eye versus untreated eye” value (dry macular degeneration; [2]) was “reduced symptoms of dry macular degeneration”.
